This is one part of the list.
B1: il2ra_site2_3nfp_normal_mot_HHH_b2_04451_000000238_0001_21_37_H_._HHH_b1_05252_af2_0001_0000300015_0000001_0 (protein)
chain: SSSSEEEELERLLREIRELLEEGDLYEALELLARVTELAARLNDEEVAREVLEIFEELQRLASSS
B2: il2ra_site1_3nfp_sap_11_mot_HHH_b1_00630_af2_000000193_0001_42_55_H_._9d49f0d3562fbcf9434e2f7f4344708e_0001_0001_0000100002_0000001_0_0001_af2pred_0001_af2pred (protein)
chain: SSSSDVIRRANELVKEISRLLKEGDPEKARELLRELEEIAKERNSPVAELLVRRLEELIEKSSSS
B3: il2ra_site2_2erj_sap_17_mot_HHH_b1_00839_000000020_0001_43_57_H_._HHH_b1_02339_0001_0000100004_0000001_0_0001 (protein)
chain: SSSSSEEEELEELLRLLEELRKEGDEERFEEVLHRAAHLAYQLNDFEVWAALAELARELLSSSSS
B4: il2ra_site1_2b5i_normal_mot_HHH_b2_04910_000000118_0001_1_19_H_._HHH_b2_06508_0001_0000100008_0000001_0 (protein)
chain: SSSSSAVEIFHEVDRLDREGNPEEALELLREAEELAREEGSRVLERIIESALRHLELELGSSSSS
B5: il2ra_site1_1z92_normal_mot_HHH_b2_07822_af2_000000141_0001_42_54_H_._HHH_b1_07952_0001_0002000089_0000001_0 (protein)
chain: SSSSDEKAEERAEFVFRNIELALENNNPKAAEAALELLEALARASNDPYAEELVEEAQELLSSSS
B6: il2ra_site2_2erj_sap_30_mot_HHH_b1_05749_af2_000000010_0001_23_39_H_._HHH_b2_00355_0001_0000200014_0000001_0_0001 (protein)
chain: SDVLELAQEVAKKDPRVLKLLWEIMRAAFNNDKEELKKLAEELKEIAEELGDPAVEELAEHFLRQ
B7: il2ra_site1_2b5i_normal_mot_HHH_b1_01934_af2_000000023_0001_42_56_H_._HHH_b1_06889_0001_0000200012_0000001_0_af2pred_dldesign_0_af2pred (protein)
chain: SSSSSAADDLAYEAFKRVSELLRAGRREEARALGEATIAELNALGAPDLAAELRRLLELYSSSSS
B8: il2ra_site1_1z92_sap_14_mot_HHH_b1_01250_000000104_0001_1_17_H_._HHH_b2_03882_af2_0001_0000200013_0000001_0_0001_af2pred_0001_af2pred_swapped (protein)
chain: SSSSDKDERNARILVRMAARVARLDEEQKKQLEEVAEELLERGLSFREIAEILAEVASELDSSSS
B9: il2ra_site1_1z92_normal_mot_54e474eed2d0515e81978198f0f96ec2_0001_000000202_0001_15_30_H_._8eb524b276bbb897fd8f0cca34c37a2d_0001_af2_0001_0000300018_0000001_0_a … (protein)
chain: DVEEEIEEALKELGVPPEEIKVVKRDFRLAREAGIPPEQVLRALINAARASGDEELTEALELVLK
B10: il2ra_site2_3nfp_normal_mot_HHH_b1_08005_000000161_0001_1_17_H_._HHH_b1_08075_0001_0000600026_0000001_0 (protein)
chain: SSSSDQSERYLQVAIELLEEALKEGDEEIFEQLLEWLKEAAELKGNEELEEQLQRLEEEFKSSSS
B11: il2ra_site2_2erj_sap_21_mot_HHH_b2_05264_af2_000000057_0001_44_57_H_._HHH_b2_00069_0001_0000600034_0000001_1_0001 (protein)
chain: SSSSDTEEMLEIALRLVRLAGNPELAEEIEELIEKYKKEGDPKYVREILKLFQEALEANDSSSSS
B12: il2ra_site2_2erj_sap_21_mot_HHH_b2_01204_af2_000000051_0001_19_34_H_._ems_3hM_591_0001_0000800033_0000001_0_0001 (protein)
chain: SSSSDEELEETLKELEEAAEKGDLERFSELLARAWELARELGDEEALLKIFELMRLIFENASSSS
B13: il2ra_site1_1z92_sap_10_mot_d8cfa582855fb05d91e09f57594ab115_0001_1_000000067_0001_37_51_H_._HEEHE_2450_0001_0000100007_0000001_0_0001 (protein)
chain: SSSSSEAERAFELIREIDEVIREGDEEEAKRLLEELRRLAEERNSPTMKRLLELLEEALEGSSSS
B14: il2ra_site1_1z92_sap_29_mot_HHH_b2_05274_af2_000000237_0001_23_40_H_._HHH_b1_05027_0001_0000100001_0000001_0_0001_af2pred_0001_af2pred_1_swapped (protein)
chain: SEVEKLVEEAVKLLVPSPKAREFLKKFLERAVEAGDKERVVKMLERFAKIAEDPEVERLAEEIEE
B15: il2ra_site1_2b5i_sap_18_mot_7e99ea63bd1fd31fd38892308a688dde_0001_1_af2_000000005_0001_35_49_H_._771ca5fb7044fd74913a74cac1256c5f_0001_0001_0000400028_0000001_0 … (protein)
chain: SSSSSDLVAEVERLIEEARRLAAAGRRREALELLEKAKKLADKADNEELIEKIEELAKELSSSSS
B16: il2ra_site1_3nfp_normal_mot_HHH_b1_01335_af2_000000105_0001_39_53_H_._HHH_b2_07269_af2_0001_0000300008_0000001_0_af2pred_0001_af2pred_swapped (protein)
chain: SSSSDVEERVEELLKQAKELAKEGDHREVDKLLREALQIASQNNNEELLRLIRKVMRELASSSSS
B17: il2ra_site2_3nfp_normal_mot_HHH_b1_05627_af2_000000038_0001_43_56_H_._HHH_b1_03413_af2_0001_0000600008_0000001_0 (protein)
chain: SSSSSKSEKYLRIALELAKLAEEEGDPESAREILEAALLAAESLNDEEIEEEVRRLLEEVSSSSS
B18: il2ra_site1_2b5i_sap_22_mot_ac211477d601265d37a31625d54e07f1_0001_1_af2_000000131_0001_18_32_H_._5c2e899aa23015d4f08a71d5b6a729c3_0001_0001_0000400032_0000001_0 … (protein)
chain: TRYLEMLERALRLGDPAARNAVKFLLRAAEEANDPELKREIKELLEEAAKLGNPIAEELLEELEK

target: il2ra, P01589; test: yeast display titration

Apparent Kd, inactive:
B1 no binding seen, B2 no binding seen, B3 no binding seen, B4 no binding seen, B5 no binding seen, B6 no binding seen, B7 no binding seen, B8 no binding seen, B9 no binding seen, B10 no binding seen, B11 no binding seen, B12 no binding seen, B13 no binding seen, B14 no binding seen, B15 no binding seen, B16 no binding seen, B17 no binding seen, B18 no binding seen
